According to ChEMBL document CHEMBL5674883, “The Heterochromatin Landscape in Migrating Cells and the Importance of H3K27me3 for Associated Transcriptome Alterations” (Cells, 2018):
This continues a long series; more values of the same kind are listed elsewhere.

By UniProt entry, the sequences of proteins in these tests, tags left out.
UniProt Q61188, whole entry: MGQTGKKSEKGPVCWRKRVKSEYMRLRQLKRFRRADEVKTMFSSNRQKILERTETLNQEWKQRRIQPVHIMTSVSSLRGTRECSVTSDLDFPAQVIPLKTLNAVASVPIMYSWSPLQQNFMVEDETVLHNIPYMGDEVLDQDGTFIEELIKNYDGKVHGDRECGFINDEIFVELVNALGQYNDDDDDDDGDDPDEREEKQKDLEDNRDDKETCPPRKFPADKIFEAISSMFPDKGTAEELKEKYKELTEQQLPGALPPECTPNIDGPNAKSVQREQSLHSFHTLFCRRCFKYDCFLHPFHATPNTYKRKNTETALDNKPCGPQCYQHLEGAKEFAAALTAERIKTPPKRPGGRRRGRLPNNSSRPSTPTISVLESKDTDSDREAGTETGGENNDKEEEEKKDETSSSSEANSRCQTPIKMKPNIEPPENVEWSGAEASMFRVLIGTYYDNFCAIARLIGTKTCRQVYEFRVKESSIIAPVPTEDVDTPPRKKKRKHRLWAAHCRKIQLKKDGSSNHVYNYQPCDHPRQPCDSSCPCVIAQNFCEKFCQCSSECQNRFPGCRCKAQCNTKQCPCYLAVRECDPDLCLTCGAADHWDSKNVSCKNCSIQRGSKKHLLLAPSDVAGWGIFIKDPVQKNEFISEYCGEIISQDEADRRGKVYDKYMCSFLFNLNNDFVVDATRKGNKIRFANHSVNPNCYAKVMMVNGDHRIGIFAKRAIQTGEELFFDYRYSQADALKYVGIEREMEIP

Tests used:
Assay type in all cases: cell-based
[1] = target: Histone-lysine N-methyltransferase EZH2 (Mus musculus) (UniProt Q61188); assay: Inhibition of EZH2 in mouse B16-F1 migrating cells assessed as fold change in H3K27me3-buffered regulated Rabggtb-mRNA expression at 3 uM measured by ChIP-seq analysis relative to control cells
[2] = target: Histone-lysine N-methyltransferase EZH2 (Mus musculus) (UniProt Q61188); assay: Inhibition of EZH2 in mouse B16-F1 migrating cells assessed as fold change in H3K27me3-buffered regulated Phf13-mRNA expression at 3 uM measured by ChIP-seq analysis relative to control cells
[3] = target: Histone-lysine N-methyltransferase EZH2 (Mus musculus) (UniProt Q61188); assay: Inhibition of EZH2 in mouse B16-F1 migrating cells assessed as fold change in H3K27me3-independent regulated Narf-mRNA expression at 3 uM measured by ChIP-seq analysis relative to control cells
[4] = target: Histone-lysine N-methyltransferase EZH2 (Mus musculus) (UniProt Q61188); assay: Inhibition of EZH2 in mouse B16-F1 migrating cells assessed as fold change in H3K27me3-buffered regulated Dlg3-mRNA expression at 3 uM measured by ChIP-seq analysis relative to control cells
[5] = target: Histone-lysine N-methyltransferase EZH2 (Mus musculus) (UniProt Q61188); assay: Inhibition of EZH2 in mouse B16-F1 migrating cells assessed as fold change in H3K27me3-buffered regulated Atg10-mRNA expression at 3 uM measured by ChIP-seq analysis relative to control cells
[6] = target: Histone-lysine N-methyltransferase EZH2 (Mus musculus) (UniProt Q61188); assay: Inhibition of EZH2 in mouse B16-F1 migrating cells assessed as fold change in H3K27me3-buffered regulated Ccnl2-mRNA expression at 3 uM measured by ChIP-seq analysis relative to control cells
[7] = target: Histone-lysine N-methyltransferase EZH2 (Mus musculus) (UniProt Q61188); assay: Inhibition of EZH2 in mouse B16-F1 migrating cells assessed as fold change in H3K27me3-buffered regulated Ube2j1-mRNA expression at 3 uM measured by ChIP-seq analysis relative to control cells
[8] = target: Histone-lysine N-methyltransferase EZH2 (Mus musculus) (UniProt Q61188); assay: Inhibition of EZH2 in mouse B16-F1 migrating cells assessed as fold change in H3K27me3-buffered regulated Anxa4-mRNA expression at 3 uM measured by ChIP-seq analysis relative to control cells
[9] = target: Histone-lysine N-methyltransferase EZH2 (Mus musculus) (UniProt Q61188); assay: Inhibition of EZH2 in mouse B16-F1 migrating cells assessed as fold change in H3K27me3-independent regulated Prdm16-mRNA expression at 3 uM measured by ChIP-seq analysis relative to control cells
[10] = target: Histone-lysine N-methyltransferase EZH2 (Mus musculus) (UniProt Q61188); assay: Inhibition of EZH2 in mouse B16-F1 migrating cells assessed as fold change in H3K27me3-buffered regulated Otud1-mRNA expression at 3 uM measured by ChIP-seq analysis relative to control cells
[11] = target: Histone-lysine N-methyltransferase EZH2 (Mus musculus) (UniProt Q61188); assay: Inhibition of EZH2 in mouse B16-F1 migrating cells assessed as fold change in H3K27me3-buffered regulated Stc1-mRNA expression at 3 uM measured by ChIP-seq analysis relative to control cells
[12] = target: Histone-lysine N-methyltransferase EZH2 (Mus musculus) (UniProt Q61188); assay: Inhibition of EZH2 in mouse B16-F1 migrating cells assessed as fold change in H3K27me3-independent regulated Map2k3os-mRNA expression at 3 uM measured by ChIP-seq analysis relative to control cells
[13] = target: Histone-lysine N-methyltransferase EZH2 (Mus musculus) (UniProt Q61188); assay: Inhibition of EZH2 in mouse B16-F1 migrating cells assessed as fold change in H3K27me3-independent regulated Phldb3-mRNA expression at 3 uM measured by ChIP-seq analysis relative to control cells
[14] = target: T1, RNA polymerase II (Mus musculus) (UniProt P08775+Q8CFI7+P97760+A0A3Q4L2S8+Q80UW8+P61219+P62488+Q923G2+P60898+O08740+Q63871+P62876); assay: Inhibition of RNA polymerase II in mouse B16-F1 migrating cells assessed as fold change in Zfp992-RNA stability at 0.1 mM measured by ChIP-seq analysis relative to control cells
[15] = target: T1, RNA polymerase II (Mus musculus); assay: Inhibition of RNA polymerase II in mouse B16-F1 migrating cells assessed as fold change in Dnal4-RNA stability at 0.1 mM measured by ChIP-seq analysis relative to control cells
[16] = target: T1, RNA polymerase II (Mus musculus); assay: Inhibition of RNA polymerase II in mouse B16-F1 migrating cells assessed as fold change in Hsp90b1-RNA stability at 0.1 mM measured by ChIP-seq analysis relative to control cells
[17] = target: T1, RNA polymerase II (Mus musculus); assay: Inhibition of RNA polymerase II in mouse B16-F1 migrating cells assessed as fold change in Zfp445-RNA stability at 0.1 mM measured by ChIP-seq analysis relative to control cells
[18] = target: T1, RNA polymerase II (Mus musculus); assay: Inhibition of RNA polymerase II in mouse B16-F1 migrating cells assessed as fold change in Gtpbp10-RNA stability at 0.1 mM measured by ChIP-seq analysis relative to control cells
[19] = target: T1, RNA polymerase II (Mus musculus); assay: Inhibition of RNA polymerase II in mouse B16-F1 migrating cells assessed as fold change in Ckap5-RNA stability at 0.1 mM measured by ChIP-seq analysis relative to control cells
[20] = target: T1, RNA polymerase II (Mus musculus); assay: Inhibition of RNA polymerase II in mouse B16-F1 migrating cells assessed as fold change in Galnt7-RNA stability at 0.1 mM measured by ChIP-seq analysis relative to control cells
[21] = target: T1, RNA polymerase II (Mus musculus); assay: Inhibition of RNA polymerase II in mouse B16-F1 migrating cells assessed as fold change in Pim3-RNA stability at 0.1 mM measured by ChIP-seq analysis relative to control cells
[22] = target: T1, RNA polymerase II (Mus musculus); assay: Inhibition of RNA polymerase II in mouse B16-F1 migrating cells assessed as fold change in Utp14b-RNA stability at 0.1 mM measured by ChIP-seq analysis relative to control cells
[23] = target: T1, RNA polymerase II (Mus musculus); assay: Inhibition of RNA polymerase II in mouse B16-F1 migrating cells assessed as fold change in Mien1-RNA stability at 0.1 mM measured by ChIP-seq analysis relative to control cells
[24] = target: T1, RNA polymerase II (Mus musculus); assay: Inhibition of RNA polymerase II in mouse B16-F1 migrating cells assessed as fold change in Cdc40-RNA stability at 0.1 mM measured by ChIP-seq analysis relative to control cells
[25] = target: T1, RNA polymerase II (Mus musculus); assay: Inhibition of RNA polymerase II in mouse B16-F1 migrating cells assessed as fold change in Usp47-RNA stability at 0.1 mM measured by ChIP-seq analysis relative to control cells
[26] = target: T1, RNA polymerase II (Mus musculus); assay: Inhibition of RNA polymerase II in mouse B16-F1 migrating cells assessed as fold change in Mrpl54-RNA stability at 0.1 mM measured by ChIP-seq analysis relative to control cells
[27] = target: T1, RNA polymerase II (Mus musculus); assay: Inhibition of RNA polymerase II in mouse B16-F1 migrating cells assessed as fold change in Bclaf1-RNA stability at 0.1 mM measured by ChIP-seq analysis relative to control cells
[28] = target: T1, RNA polymerase II (Mus musculus); assay: Inhibition of RNA polymerase II in mouse B16-F1 migrating cells assessed as fold change in Cbfa2t2-RNA stability at 0.1 mM measured by ChIP-seq analysis relative to control cells
[29] = target: T1, RNA polymerase II (Mus musculus); assay: Inhibition of RNA polymerase II in mouse B16-F1 migrating cells assessed as fold change in Aes-RNA stability at 0.1 mM measured by ChIP-seq analysis relative to control cells
[30] = target: T1, RNA polymerase II (Mus musculus); assay: Inhibition of RNA polymerase II in mouse B16-F1 migrating cells assessed as fold change in Timm10b-RNA stability at 0.1 mM measured by ChIP-seq analysis relative to control cells

## CCCc1cc(C)[nH]c(=O)c1CNC(=O)c1cc(-c2ccnc(N3CCN(C)CC3)c2)cc2c1cnn2C(C)C
[1]
  log2FC: -0.41
[2]
  log2FC: -0.48
[3]
  log2FC: -0.78
[4]
  log2FC: -0.59
[5]
  log2FC: 0.41
[6]
  log2FC: -0.48
[7]
  log2FC: 0.51
[8]
  log2FC: 0.41
[9]
  log2FC: -0.54
[10]
  log2FC: -0.48
[11]
  log2FC: 1.12
[12]
  log2FC: 0.62
[13]
  log2FC: 0.63

## OC[C@H]1O[C@@H](n2cnc3cc(Cl)c(Cl)cc32)[C@H](O)[C@@H]1O
[14]
  log2FC: -0.86
[15]
  log2FC: 0.61
[16]
  log2FC: -0.62
[17]
  log2FC: -0.8
[18]
  log2FC: -1.19
[19]
  log2FC: -0.53
[20]
  log2FC: -0.88
[21]
  log2FC: -0.83
[22]
  log2FC: -0.54
[23]
  log2FC: 0.4
[24]
  log2FC: -0.65
[25]
  log2FC: -0.4
[26]
  log2FC: 0.55
[27]
  log2FC: -0.85
[28]
  log2FC: -0.5
[29]
  log2FC: 0.48
[30]
  log2FC: 0.45
